Article PMC5716713
No constants are given. Whether binding was seen depends on the method and setting. In cells and extracts the contact can be indirect. Some entries that bind do so weakly or less than the wild type. For part of these data: Sequences can lack the tags named with a protein.

Sequences of proteins named here, by UniProt entry; tags and fusion partners are left off.
UniProt P31749: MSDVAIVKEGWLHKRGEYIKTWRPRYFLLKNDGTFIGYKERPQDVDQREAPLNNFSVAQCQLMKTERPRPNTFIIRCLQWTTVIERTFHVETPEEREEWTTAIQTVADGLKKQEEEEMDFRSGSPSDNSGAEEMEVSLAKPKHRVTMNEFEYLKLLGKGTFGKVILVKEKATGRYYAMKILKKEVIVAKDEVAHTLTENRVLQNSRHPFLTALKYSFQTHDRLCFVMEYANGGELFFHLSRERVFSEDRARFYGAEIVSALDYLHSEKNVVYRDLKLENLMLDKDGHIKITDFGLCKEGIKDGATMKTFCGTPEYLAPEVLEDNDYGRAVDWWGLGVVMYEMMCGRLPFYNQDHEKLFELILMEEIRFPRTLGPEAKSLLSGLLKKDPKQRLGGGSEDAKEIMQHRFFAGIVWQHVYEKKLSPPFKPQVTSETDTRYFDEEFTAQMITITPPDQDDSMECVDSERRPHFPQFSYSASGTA

Tests used:
[1] = molecular target: full length GST-FAK (human) (UniProt Q05397); assay: pull-down; competition: GST-FAK-NT1 or GST-FAK beads and cell lysate with interfering FAK-derived peptide or vehicle (water), two hours at 4°C before overnight Akt1 incubation; the pair that is blocked; only the target purified
[2] = molecular target: T1, GST-FAK Truncation 4 (human); assay: pull-down; GST or GST-FAK fusion on glutathione-Sepharose 4B beads (30 μl) incubated with cell lysate (1500 μg protein) overnight at 4°C; eluate blotted for Akt1 and GST; only the target purified
T1 sequence: LAHPPEE

[3] = molecular target: T2, GST-FAK Truncation 1 (human) (UniProt Q05397); assay: as above
T2 sequence: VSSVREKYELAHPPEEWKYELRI

GST-FAK-NT1-2-2 (human) = molecular target: T3, GST-FAK-NT1-2-2 (human) (UniProt Q05397); assay: as above
T3 sequence: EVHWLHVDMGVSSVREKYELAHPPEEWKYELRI

[4] = molecular target: T4, GST-FAK Truncation 3 (human) (UniProt Q05397); assay: as above
T4 sequence: LAHPPEEWKYELRI

[5] = molecular target: T5, GST-FAK Truncation 2 (human) (UniProt Q05397); assay: as above
T5 sequence: VSSVREKYELAHPPEE

Measured: binding

endogenous Akt1 of SW620 cells (from UniProt P31749 1-480) (enzyme)
binds: all assays above
